# Data: publication PMC8914023
# Sequences of proteins named here, by UniProt entry; tags and fusion partners are left off.
# UniProt C4LVG4: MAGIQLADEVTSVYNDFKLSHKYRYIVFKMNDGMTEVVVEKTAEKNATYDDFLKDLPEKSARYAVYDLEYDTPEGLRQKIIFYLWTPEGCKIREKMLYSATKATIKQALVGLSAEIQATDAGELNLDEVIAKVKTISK
# Results are given in words; binding and its absence hold for the method and conditions named.
# Biological target: Entamoeba histolytica actophorin (EhActo) (Entamoeba histolytica) (UniProt C4LVG4)
# Assay: SEC; gel filtration on G75 superdex, second step of the purification of EhActo; both purified
substance,measurement,value
Entamoeba histolytica actophorin (EhActo) (from UniProt C4LVG4 1-138),binding,no binding
